Results from article doi:10.1101/2023.11.14.567006.
No constants are given. Whether binding was seen depends on the method and setting. In cells and extracts the contact can be indirect. Here binding means that the protein was enriched with, or labelled near, the bait; the list need not be complete. Values belong to the binder of their own block, whether it stands above or below them.

Target: C-terminal His8-tagged SbtB (Synechocystis sp. PCC 6803)
Assay: affinity purification with mass spectrometry

binding: binds
B1: CmpD, subunit of the ABC-type bicarbonate transporter complex BCT1 (protein, UniProt Q55463 1-282)
chain: MQTLKSQRAMPTATPSDQKTTAFLTIENVSKVYPTAKGPYTVLENVNLTVNEGEFICVIGHSGCGKSTLLNMVSGFASPTDGSVQVGGKIITEPGPDRMVVFQNYALLPWLTALENVYIAVDAVHSQKTEAEKRAIAKDHLAMVGLTDSMDKKPGQISGGMKQRVSIARALAIRPEVLILDEPFGALDAITKEELQEELLQIWNDHRCTVLMITHDIDEALFLADRLVMMTNGPHANIGEIMTIPFSRPRDRDRIMEDPTYYQLRNYALDFLYNRFAHDDVA

binding: binds
B2: glycogen branching enzyme (GlgB) (enzyme, UniProt P52981 1-770)
chain: MTYTINADQVHQIVHNLHHDPFEVLGCHPLGDHGKVNQWVIRAYLPTAEAVTVLLPTDRREVIMTTVHHPNFFECVLELEEPKNYQLRITENGHERVIYDPYGFKTPKLTDFDLHVFGEGNHHRIYEKLGAHLMTVDGVKGVYFAVWAPNARNVSILGDFNNWDGRLHQMRKRNNMVWELFIPELGVGTSYKYEIKNWEGHIYEKTDPYGFYQEVRPKTASIVADLDGYQWHDEDWLEARRTSDPLSKPVSVYELHLGSWLHTAYDEPVKTLHGEGVPVEVSEWNTGARFLTYYELVDKLIPYVKELGYTHIELLPIAEHPFDGSWGYQVTGYYAPTSRFGSPEDFMYFVDQCHLNGIGVIIDWVPGHFPKDGHGLAFFDGTHLYEHGDPRKGEHKEWGTLIFNYGRNEVRNFLVANALFWFDKYHIDGMRVDAVASMLYLDYCREEGEWVANEYGGRENLEAADFLRQVNSVVYSYFPGILSIAEESTSWPMVSWPTYVGGLGFNLKWNMGWMHDMLDYFSMDPWFRQFHQNSITFSMWYNHSENYMLALSHDEVVHGKSNMLGKMPGDEWQKYANVRALFTYMFTHPGKKTMFMSMEFGQWSEWNVWGDLEWHLLNFPPHQQLKQFFTELNHLYKNEPALYSNDFDESGFQWIDCSDNRHSVVSFIRRAKNSAEFVVTICNFTPQPHSHYRVGVPVPGFYTELFNSDARQYGGSNMGNLGGKWTEEWSFHEQPYSLDLCLPPLSVLVLKLSQNAEENTVPAEEASNIA

binding: binds
B3: CmpC, subunit of the ABC-type bicarbonate transporter complex BCT1 (protein, UniProt Q55462 1-667)
chain: MSLFVAVDNIDKVFSLTDGGEYIALKGINLEIKKGEFVSLIGHSGCGKSTLLNMIAGLDLPSEGIVTLEGQRIKQPGPDKMVIFQNYSLLPWLTVKQNIALAVDEVMKGASAAERKAIVEEHINLVGLGHAVDKRPGELSGGMKQRVAIARALAIRPKLLLLDEPFGALDALTRGNLQEQLMRICEQYQVTAVMVTHDVDEAVLLSDRIVMLTNGPGSNIGGILEVDIPRPRKRMEVVEHPSYYSLRSEIIYFLNQQKRIKKLRAKKTTAIARHGLEKVNLELGYVPLVACAPLVVAQEKGFFAKHGLDEVSLVRETSWRGIVDGIAGGYLDGAQMPAGMPTWLTAGGYREQSIPVVSALTMTRNGNAITLSKKLYDQGIYTAEDFRQLLLASDGDRHTLGMVHPSSMHNLLLRYWLAAHNINPDRDVHLKTIPPAQMVADLKAGTIDGYCVSEPWNLRASMEGAGFSIATDLEIWQNHPGKVLGVREDWAIAHPNTHVALVKALLEACAYCADPNHEMEIRELLATRQYLSTNIDYIHLGDPEGRTCRLGNPVEYSHHLFFGDQFNRPSRTEHLWMMTQMARWGDIPFPRNWVEILERVCRVGVFSTAARELGYDVNYQRQPIALFDGKVFNADDPIAYLNQTVIHRNFTIAEVHLDNPTPAPVFA
